The data scatter; read single values as rough.
Test system: Sindbis virus TE/5'2J-GFP
Assay: percent infected (GFP+ in RFP+ ISG-expressing cells); higher = more infection (less antiviral activity)
Conditions: experiment: primary screen (single well)

Sequence	percent infected (BHK/NZAP-Zeo (ZAP))	percent infected (BHK/HA-Zeo (control))
MAVMEMACPGAPGSAVGQQKELPKAKEKTPPLGKKQSSVYKLEAVEKSPVFCGKWEILNDVITKGTAKEGSEAGPAAISIIAQAECENSQEFSPTFSERIFIAGSKQYSQSESLDQIPNNVAHATEGKMARVCWKGKRRSKARKKRKKKSSKSLAHAGVALAKPLPRTPEQESCTIPVQEDESPLGAPYVRNTPQFTKPLKEPGLGQLCFKQLGEGLRPALPRSELHKLISPLQCLNHVWKLHHPQDGGPLPLPTHPFPYSRLPHPFPFHPLQPWKPHPLESFLGKLACVDSQKPLPDPHLSKLACVDSPKPLPGPHLEPSCLSRGAHEKFSVEEYLVHALQGSVSSGQAHSLTSLAKTWAARGSRSREPSPKTEDNEGVLLTEKLKPVDYEYREEVHWATHQLRLGRGSFGEVHRMEDKQTGFQCAVKKVRLEVFRAEELMACAGLTSPRIVPLYGAVREGPWVNIFMELLEGGSLGQLVKEQGCLPEDRALYYLGQALEGLEYLHSRRILHGDVKADNVLLSSDGSHAALCDFGHAVCLQPDGLGKSLLTGDYIPGTETHMAPEVVLGRSCDAKVDVWSSCCMMLHMLNGCHPWTQFFRGPLCLKIASEPPPVREIPPSCAPLTAQAIQEGLRKEPIHRVSAAELGGKVNRALQQVGGLKSPWRGEYKEPRHPPPNQANYHQTLHAQPRELSPRAPGPRPAEETTGRAPKLQPPLPPEPPEPNKSPPLTLSKEESGMWEPLPLSSLEPAPARNPSSPERKATVPEQELQQLEIELFLNSLSQPFSLEEQEQILSCLSIDSLSLSDDSEKNPSKASQSSRDTLSSGVHSWSSQAEARSSSWNMVLARGRPTDTPSYFNGVKVQIQSLNGEHLHIREFHRVKVGDIATGISSQIPAAAFSLVTKDGQPVRYDMEVPDSGIDLQCTLAPDGSFAWSWRVKHGQLENRP [MAP3K14]	67.8%	–
MAVTTRLTWLHEKILQNHFGGKRLSLLYKGSVHGFRNGVLLDRCCNQGPTLTVIYSEDHIIGAYAEESYQEGKYASIILFALQDTKISEWKLGLCTPETLFCCDVTKYNSPTNFQIDGRNRKVIMDLKTMENLGLAQNCTISIQDYEVFRCEDSLDERKIKGVIELRKSLLSALRTYEPYGSLVQQIRILLLGPIGAGKSSFFNSVRSVFQGHVTHQALVGTNTTGISEKYRTYSIRDGKDGKYLPFILCDSLGLSEKEGGLCRDDIFYILNGNIRDRYQFNPMESIKLNHHDYIDSPSLKDRIHCVAFVFDASSIQYFSSQMIVKIKRIRRELVNAGVVHVALLTHVDSMDLITKGDLIEIERCEPVRSKLEEVQRKLGFALSDISVVSNYSSEWELDPVKDVLILSALRRMLWAADDFLEDLPFEQIGNLREEIINCAQGKK [IFI44]	95.1%	97.5%
MAYPGYGGGFGNFSIQVPGMQMGQPVPETGPAILLDGYSGPAYSDTYSSAGDSVYTYFSAVAGQDGEVDAEELQRCLTQSGINGTYSPFSLETCRIMIAMLDRDHTGKMGFNAFKELWAALNAWKENFMTVDQDGSGTVEHHELRQAIGLMGYRLSPQTLTTIVKRYSKNGRIFFDDYVACCVKLRALTDFFRKRDHLQQGSANFIYDDFLQGTMAI [GCA]	97.5%	98.6%
MCSAGELLRGGDGGERDEDGDALAEREAAGTGWDPGASPRRRGQRPKESEQDVEDSQNHTGEPVGDDYKKMGTLFGELNKNLINMGFTRMYFGERIVEPVIVIFFWVMLWFLGLQALGLVAVLCLVIIYVQQ [C4orf32]	94.5%	95%
MCSTSGCDLEEIPLDDDDLNTIEFKILAYYTRHHVFKSTPALFSPKLLRTRSLSQRGLGNCSANESWTEVSWPCRNSQSSEKAINLGKKKSSWKAFFGVVEKEDSQSTPAKVSAQGQRTLEYQDSHSQQWSRCLSNVEQCLEHEAVDPKVISIANRVAEIVYSWPPPQATQAGGFKSKEIFVTEGLSFQLQGHVPVASSSKKDEEEQILAKIVELLKYSGDQLERKLKKDKALMGHFQDGLSYSVFKTITDQVLMGVDPRGESEVKAQGFKAALVIDVTAKLTAIDNHPMNRVLGFGTKYLKENFSPWIQQHGGWEKILGISHEEVD [BCL2L14]	89.7%	87.9%
MCTKMEQPFYHDDSYTATGYGRAPGGLSLHDYKLLKPSLAVNLADPYRSLKAPGARGPGPEGGGGGSYFSGQGSDTGASLKLASSELERLIVPNSNGVITTTPTPPGQYFYPRGGGSGGGAGGAGGGVTEEQEGFADGFVKALDDLHKMNHVTPPNVSLGATGGPPAGPGGVYAGPEPPPVYTNLSSYSPASASSGGAGAAVGTGSSYPTTTISYLPHAPPFAGGHPAQLGLGRGASTFKEEPQTVPEARSRDATPPVSPINMEDQERIKVERKRLRNRLAATKCRKRKLERIARLEDKVKTLKAENAGLSSTAGLLREQVAQLKQKVMTHVSNGCQLLLGVKGHAF [JUNB]	98.1%	98.2%
MDAPHSKAALDSINELPENILLELFTHVPARQLLLNCRLVCSLWRDLIDLMTLWKRKCLREGFITKDWDQPVADWKIFYFLRSLHRNLLRNPCAEEDMFAWQIDFNGGDRWKVESLPGAHGTDFPDPKVKKYFVTSYEMCLKSQLVDLVAEGYWEELLDTFRPDIVVKDWFAARADCGCTYQLKVQLASADYFVLASFEPPPVTIQQWNNATWTEVSYTFSDYPRGVRYILFQHGGRDTQYWAGWYGPRVTNSSIVVSPKMTRNQASSEAQPGQKHGQEEAAQSPYRAVVQIF [FBXO6]	81.9%	96.8%
MDDPDCDSTWEEDEEDAEDAEDEDCEDGEAAGARDADAGDEDEESEEPRAARPSSFQSRMTGSRNWRATRDMCRYRHNYPDLVERDCNGDTPNLSFYRNEIRFLPNGCFIEDILQNWTDNYDLLEDNHSYIQWLFPLREPGVNWHAKPLTLREVEVFKSSQEIQERLVRAYELMLGFYGIRLEDRGTGTVGRAQNYQKRFQNLNWRSHNNLRITRILKSLGELGLEHFQAPLVRFFLEETLVRRELPGVRQSALDYFMFAVRCRHQRRQLVHFAWEHFRPRCKFVWGPQDKLRRFKPSSLPHPLEGSRKVEEEGSPGDPDHEASTQGRTCGPEHSKGGGRVDEGPQPRSVEPQDAGPLERSQGDEAGGHGEDRPEPLSPKESKKRKLELSRREQPPTEPGPQSASEVEKIALNLEGCALSQGSLRTGTQEVGGQDPGEAVQPCRQPLGARVADKVRKRRKVDEGAGDSAAVASGGAQTLALAGSPAPSGHPKAGHSENGVEEDTEGRTGPKEGTPGSPSETPGPSPAGPAGDEPAESPSETPGPRPAGPAGDEPAESPSETPGPRPAGPAGDEPAESPSETPGPSPAGPTRDEPAESPSETPGPRPAGPAGDEPAESPSETPGPRPAGPAGDEPAESPSETPGPSPAGPTRDEPAKAGEAAELQDAEVESSAKSGKP [OGFR]	97.8%	98.5%
MDEDEKDRAKRASRNKSEKKRRDQFNVLIKELSSMLPGNTRKMDKTTVLEKVIGFLQKHNEVSAQTEICDIQQDWKPSFLSNEEFTQLMLEALDGFIIAVTTDGSIIYVSDSITPLLGHLPSDVMDQNLLNFLPEQEHSEVYKILSSHMLVTDSPSPEYLKSDSDLEFYCHLLRGSLNPKEFPTYEYIKFVGNFRSYNNVPSPSCNGFDNTLSRPCRVPLGKEVCFIATVRLATPQFLKEMCIVDEPLEEFTSRHSLEWKFLFLDHRAPPIIGYLPFEVLGTSGYDYYHIDDLELLARCHQHLMQFGKGKSCCYRFLTKGQQWIWLQTHYYITYHQWNSKPEFIVCTHSVVSYADVRVERRQELALEDPPSEALHSSALKDKGSSLEPRQHFNTLDVGASGLNTSHSPSASSRSSHKSSHTAMSEPTSTPTKLMAEASTPALPRSATLPQELPVPGLSQAATMPAPLPSPSSCDLTQQLLPQTVLQSTPAPMAQFSAQFSMFQTIKDQLEQRTRILQANIRWQQEELHKIQEQLCLVQDSNVQMFLQQPAVSLSFSSTQRPEAQQQLQQRSAAVTQPQLGAGPQLPGQISSAQVTSQHLLRESSVISTQGPKPMRSSQLMQSSGRSGSSLVSPFSSATAALPPSLNLTTPASTSQDASQCQPSPDFSHDRQLRLLLSQPIQPMMPGSCDARQPSEVSRTGRQVKYAQSQTVFQNPDAHPANSSSAPMPVLLMGQAVLHPSFPASQPSPLQPAQARQQPPQHYLQVQAPTSLHSEQQDSLLLSTYSQQPGTLGYPQPPPAQPQPLRPPRRVSSLSESSGLQQPPR [NPAS2]	92%	–
MDEKTKKAEEMALSLTRAVAGGDEQVAMKCAIWLAEQRVPLSVQLKPEVSPTQDIRLWVSVEDAQMHTVTIWLTVRPDMTVASLKDMVFLDYGFPPVLQQWVIGQRLARDQETLHSHGVRQNGDSAYLYLLSARNTSLNPQELQRERQLRMLEDLGFKDLTLQPRGPLEPGPPKPGVPQEPGRGQPDAVPEPPPVGWQCPGCTFINKPTRPGCEMCCRARPEAYQVPASYQPDEEERARLAGEEEALRQYQQRKQQQQEGNYLQHVQLDQRSLVLNTEPAECPVCYSVLAPGEAVVLRECLHTFCRECLQGTIRNSQEAEVSCPFIDNTYSCSGKLLEREIKALLTPEDYQRFLDLGISIAENRSAFSYHCKTPDCKGWCFFEDDVNEFTCPVCFHVNCLLCKAIHEQMNCKEYQEDLALRAQNDVAARQTTEMLKVMLQQGEAMRCPQCQIVVQKKDGCDWIRCTVCHTEICWVTKGPRWGPGGPGDTSGGCRCRVNGIPCHPSCQNCH [RBCK1]	93.6%	98.4%
MDENNGLLLLELNPPNPWDLQPRSPEELAFGEVQITYLTHACMDLKLGDKRMVFDPWLIGPAFARGWWLLHEPPSDWLERLCQADLIYISHLHSDHLSYPTLKKLAGRRPDIPIYVGNTERPVFWNLNQSGVQLTNINVVPFGIWQQVDKNLRFMILMDGVHPEMDTCIIVEYKGHKILNIVDCTRPNGGRLPMKVALMMSDFAGGASGFPMTFSGGKFTEEWKAQFIKTERKKLLNYKARLVKNLQPRIYCPFAGYFVESHPSDKYIKETNTKNDPNELNNLIKKNSDVITWTPRPGATLDLGRMLKDRTDSKGIIEPPEGTKIYKDSWDFEPYLEILNAALGDEIFLHSSWIKEYFTWAGFKDYNLVVRMIETDEDFNPFPGGYDYLVDFLDLSFPKERPQREHPYEEIHSRVDVIRHVVKNGLLWDELYIGFQTRLQRDPDIYHHLFWNHFQIKLPLTPPNWKSFLMCCEQNGPVILQFSTERTNEPNRNKFSVENKA [CMAH]	79.2%	90.1%
MDFKIEHTWDGFPVKHEPVFIRLNPGDRGVMMDISAPFFRDPPAPLGEPGKPFNELWDYEVVEAFFLNDITEQYLEVELCPHGQHLVLLLSGRRNVWKQELPLSFRMSRGETKWEGKAYLPWSYFPPNVTKFNSFAIHGSKDKRSYEALYPVPQHELQQGQKPDFHCLEYFKSFNFNTLLGEEWKQPESDLWLIEKCDI [C4orf33]	77.6%	91.8%
MDKQNSQMNASHPETNLPVGYPPQYPPTAFQGPPGYSGYPGPQVSYPPPPAGHSGPGPAGFPVPNQPVYNQPVYNQPVGAAGVPWMPAPQPPLNCPPGLEYLSQIDQILIHQQIELLEVLTGFETNNKYEIKNSFGQRVYFAAEDTDCCTRNCCGPSRPFTLRIIDNMGQEVITLERPLRCSSCCCPCCLQEIEIQAPPGVPIGYVIQTWHPCLPKFTIQNEKREDVLKISGPCVVCSCCGDVDFEIKSLDEQCVVGKISKHWTGILREAFTDADNFGIQFPLDLDVKMKAVMIGACFLIDFMFFESTGSQEQKSGVW [PLSCR1]	96.2%	98.5%
MDNSGKEAEAMALLAEAERKVKNSQSFFSGLFGGSSKIEEACEIYARAANMFKMAKNWSAAGNAFCQAAQLHLQLQSKHDAATCFVDAGNAFKKADPQEAINCLMRAIEIYTDMGRFTIAAKHHISIAEIYETELVDIEKAIAHYEQSADYYKGEESNSSANKCLLKVAGYAALLEQYQKAIDIYEQVGTNAMDSPLLKYSAKDYFFKAALCHFCIDMLNAKLAVQKYEELFPAFSDSRECKLMKKLLEAHEEQNVDSYTESVKEYDSISRLDQWLTTMLLRIKKTIQGDEEDLR [NAPA]	94.8%	91.3%

Reference: the supplement of paper PMC3353916
